Source: US8071716B2, “Thymus-specific protein” (Immune System Key Ltd., priority 2004, dated 2011)
Part of at least one peptide drawing is inferred or uncertain, most often the ends. Where no end group is shown, it is not given here.

Experiments:
[1] = tested on: human peripheral blood lymphocytes (PBL); assay: BrdU incorporation proliferation assay in human PBL; format: cell-based
Experimental: The T101 peptide was tested for its ability to activate proliferation of mouse spleenocytes or thymocytes (two mouse strains were used: CD1 and Balb/C), as well as human peripheral blood lymphocytes (PBL). The proliferation activity was measured by 5-bromo 2′-deoxy-uridine (BrdU) incorporation into these cells.
Human PBL were isolated on a Ficole gradient from blood taken from volunteers and then plated in 96-well plates, again using RPMI 1640+10% FCS+Pen/Str.
The cells were treated with different concentrations of the peptide or saline (as above) and after 48 hours were labeled for 6 hours with BrdU and tested for BrdU incorporation into their nucleus.
In the next experiment, several deletion mutants of the T101 peptide were constructed and synthesized. These mutants were tested for their ability to stimulate proliferation in human PBL. The right-hand column indicates the fold increase in proliferation over proliferation in untreated cells.

Balb/c thymocytes = assay: BrdU incorporation proliferation assay in Balb/c thymocytes; format: cell-based, mouse; conditions: 0.1 or 0.01 μg/well, 48 hours, then 6 hours BrdU; vs saline; FIG. 4
human PBLs = assay: Binding of biotinilated-T101 peptide to human PBLs, fluorescence microscope; conditions: 10^6 cells/tube, fluorescent anti-biotin antibody; FIG. 5
Balb/C mice [2] = assay: Blood cell counts in Balb/C mice injected with T101 peptide; format: in vivo, mouse
Balb/C mice [3] = assay: CD4+/CD8+ subpopulations in spleen, thymus and lymph node of injected Balb/C mice; format: in vivo, mouse; conditions: Balb/C 3- to 4-week-old female mice, 72 micrograms/Kg once a day
IL-10 = IL-10 level in mice injected with T101; format: in vivo, mouse; conditions: 72 micrograms/Kg twice a day, once a day or once every other day (all groups; best once every other day), vs saline, FIG. 11
[4] = tested on: mammary carcinoma EMT6/CTX cells; assay: Mammary carcinoma EMT6/CTX tumor growth in Balb/C mice; format: in vivo, mouse
[5] = tested on: Balb/c mice receiving DSS; assay: DSS mouse model for colitis/Crohn's disease; format: in vivo; conditions: female Balb/c mice, 5% DSS in drinking water 14 days, T101 52 or 13 microgram/Kg once every 3 days; FIGS. 14 and 15
[6] = 7- to 8-week-old female Balb/C mice, 50 microgram/Kg twice a day for 8 days, FIG. 7
[7] = 7- to 8-week-old female Balb/C mice, 50 microgram/Kg twice a day for 8 days, results not shown

Sequence: LHLWLSGEPVQSSGTKDMRSKSDSKRVSDKQLISKAVWWTFFLPSTLWERK [T101 peptide]
- BrdU incorporation in human PBL ([1]; 0.1 or 0.01 μg/well, 48 hours, then 6 hours BrdU, vs saline, FIG. 3): increase BrdU incorporation
- Fold Increase in proliferation over proliferation in untreated cells ([1]; human PBL): 2 Fold
- BrdU incorporation in Balb/c thymocytes (Balb/c thymocytes): increase BrdU incorporation
- binding to human PBL (anti-biotin antibody fluorescence) (human PBLs): can bind to human PBL
- magnitude of suppression of the level of the different blood cell types (Balb/C mice [2]; 3-4 week Balb/C females, 72 microgram/Kg twice a day, FIG. 9): approximately 30%
- increase in lymphocytes as compared to saline injected control (Balb/C mice [2]; [6]): about 30%
- increase in monocytes as compared to saline injected control (Balb/C mice [2]; [6]): about 30%
- increase in total WBC as compared to saline injection (Balb/C mice [2]; [6]): about 30%
- difference in red blood cells (RBC) level between saline and T101 peptide injection (Balb/C mice [2]; 7- to 8-week-old female Balb/C mice, 50 microgram/Kg twice a day for 8 days, FIG. 8): less than 5%
- CD4+ and CD8+ population, T101-treated vs saline-treated mice (Balb/C mice [2]; [7]): did not reveal any significant differences
- difference in platelets level between saline and T101 peptide injection (Balb/C mice [2]; [7]): less than 5%
- level of CD4+ cells in spleen (Balb/C mice [3]; FIG. 10): decreased
- level of CD8+ cells in spleen (Balb/C mice [3]; FIG. 10): decreased
- CD8+ cells in lymph node (Balb/C mice [3]; results not shown): no change
- decrease in the level of CD4+ cells in lymph node (Balb/C mice [3]; results not shown): 35-50%
- level of CD4+ and CD8+ cells in thymus cells (Balb/C mice [3]; results not shown): no difference
- level of IL-10 (IL-10): increased in all groups
- fold increase of the tumor size as compared to the original size before injection ([4]; Balb/C mice, EMT6/CTX, 50 microgram/Kg twice a day for 8 days, day 14, saline 6.7, FIG. 12): 4.3 fold
- growth rate of the tumor ([4]; Balb/C mice, EMT6/CTX, 50 microgram/Kg twice a day for 8 days, FIG. 13): significantly decrease
- tumor growth, in words ([4]; Balb/C mice, EMT6/CTX, 50 microgram/Kg twice a day for 8 days, vs saline): significantly reduce tumor growth
- numbers of lymphocytes and neutrophils in the tumor as compared with the control ([4]; pathological studies, some of the T101-treated mice, results not shown): significant increase
- disease symptoms (colon length, body weight) as compared with mice receiving DSS and only saline [5]: profound effect in decreasing disease symptoms
